The nature of data set [1]: Appearance (haziness or incompatibility) of coated glass plates after oven ageing (Example 76). Conditions: 140° F. (60° C.) oven for 49 days; 2% by weight on resin solids.
Data set [2] can be described thus: Adhesion of enamel coating on XENOY polycarbonate panels, ASTM D-3359 (Example 77). Particulars: 40 days at 60° C. in jar with distilled water.

Experimental findings from US5216156A, “Non-migrating 1-hydrocarbyloxy-2,2,6,6-tetramethylpiperidine 1,3,5-triazine derivatives” (Ciba-Geigy Corporation, priority 1992, dated 1993) are described below.

Each structure is given as a SMILES string.

`CCCCN(c1nc(NCCO)nc(N(CCCC)C2CC(C)(C)N(OC3CCCCC3)C(C)(C)C2)n1)C1CC(C)(C)N(OC2CCCCC2)C(C)(C)C1` [Example 1, 2-[(2-Hydroxyethyl)amino]-4,6-bis[N-(1-cyclohexyloxy-2,2,6,6-tetramethylpiperidin-4-yl)-butylamino]-1,3,5-triazine]: in data set [1], the Appearance result was “clear”. The “Percent Coating Removed” value in data set [2] was found to be 0%.

Consider `CCCCCCCCON1C(C)(C)CC(N(CCCC)c2nc(NCCO)nc(N(CCCC)C3CC(C)(C)N(OCCCCCCCC)C(C)(C)C3)n2)CC1(C)C` [Example 2, 2-[(2-Hydroxyethyl)amino]-4,6-bis[N-(1-octyloxy-2,2,6,6-tetramethylpiperidin-4-yl)butylamino]-1,3,5-triazine], for which, in data set [1], the Appearance result is reported as “clear”. For the same molecule, the “Percent Coating Removed” value in data set [2] is listed as 0%.

For `CCCCN(c1nc(NCCCCCC(=O)O)nc(N(CCCC)C2CC(C)(C)N(OC3CCCCC3)C(C)(C)C2)n1)C1CC(C)(C)N(OC2CCCCC2)C(C)(C)C1` [Example 15, N-{4,6-Bis[(1-cyclohexyloxy-2,2,6,6-tetramethylpiperidin-4-yl)butylamino]-1,3,5-triazin-2-yl}-6-aminohexanoic acid], the Appearance entry in data set [1] is listed as “clear”.

On to `CCCCCCCCON1C(C)(C)CC(N(CCCC)c2nc(NCCCCCC(=O)O)nc(N(CCCC)C3CC(C)(C)N(OCCCCCCCC)C(C)(C)C3)n2)CC1(C)C` [Example 16, N-{4,6-Bis[(1-octyloxy-2,2,6,6-tetramethylpiperidin-4-yl)butylamino]-1,3,5-triazin-2-yl}-6-aminohexanoic acid], for which, in data set [1], the Appearance entry is “clear”.

As for `CCCCCCCCON1C(C)(C)CC(OC(=O)CCCCCCCCC(=O)OC2CC(C)(C)N(OCCCCCCCC)C(C)(C)C2)CC1(C)C` [HA 1, bis(1-octyloxy-2,2,6,6-tetramethylpiperidin-4-yl) sebacate, reference compound], the Appearance result in data set [1] was “cloudy”.

For `CN1C(C)(C)CC(OC(=O)CCCCCCCCC(=O)OC2CC(C)(C)N(C)C(C)(C)C2)CC1(C)C` [HA 2, bis(1,2,2,6,6-pentamethylpiperidin-4-yl) sebacate, reference compound], the “Percent Coating Removed” value in data set [2] worked out at 85%.
